In this assay the target is FLAG-EGFP-RelA (full length human RelA expressed as a FLAG-EGFP fusion protein in A549 cells) (human), Q04206. Briefly: co-purification with FLAG-EGFP-RelA on anti-FLAG M2 gel (Load lane), immunoblot with anti-IκBα. IκBα stays in the flow-through of the following Bt-P028F4 aptamer capture. The conditions noted are these: remark: other sources report otherwise. Background: In western blotting, separated proteins are transferred to a membrane and probed.

These are yes or no findings as the source states them, for the method shown. Binding seen in cells or lysates may run through a third protein. Some binding calls cover weakened binding; strength is not graded here.

B1: IκBα, P25963 (protein, human, UniProt P25963 1-317, looked up)
single chain: MFQAAERPQEWAMEGPRDGLKKERLLDDRHDSGLDSMKDEEYEQMVKELQEIRLEPQEVPRGSEPWKQQLTEDGDSFLHLAIIHEEKALTMEVIRQVKGDLAFLNFQNNLQQTPLHLAVITNQPEIAEALLGAGCDPELRDFRGNTPLHLACEQGCLASVGVLTQSCTTPHLHSILKATNYNGHTCLHLASIHGYLGIVELLVSLGADVNAQEPCNGRTALHLAVDLQNPDLVSLLLKCGADVNRVTYQGYSPYQLTWGRPSTRIQQQLGQLTLENLQMLPESEDEESYDTESEFTEFTEDELPYDDCVFGGQRLTL
modifications: here or on the partner: phospho-Ser 536 detected in the P028F4 eluate
As for B1, the binding entry is listed as “binds”.

Values taken from patent US20150259687A1.
